Measured values as given in PubChem BioAssay AID485314 (National Center for Advancing Translational Sciences (NCATS), 2010).
About 4,500 (1.3%) of roughly 340,000 compounds were called active. This list was built around the results that the source calls inconclusive (neither active nor inactive); the mix of calls is not that of the screen. The call rests on the fitted dose curve; in most records, active means well fitted inhibition curve with a large enough effect; inconclusive means small, poorly fitted or top-dose-only effect, or another doubt; inactive means no such curve, though single readings can be large or run the other way. Potencies of inconclusive entries are doubtful fits and often do not repeat.
On the % scale 0 is the no-effect control and ±100 the full control effect; potency means the concentration at half of the fitted maximal effect.

The molecules below were run against DNA polymerase beta (Homo sapiens) (UniProt P06746) (assay: qHTS Assay for Inhibitors of DNA Polymerase Beta). Details: Pol beta primer extension/strand displacement, fluorescence kinetic; activity change, negative = inhibition: at 114 µM (top of the series).
In short: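 Curves were derived by four-parameter Hill fits of normalized qHTS data. The kinetic fluorescent primer-extension read was taken at 0 and 10 min after 50 nM substrate, following a 15 min room-temperature preincubation of 10 nM enzyme with compounds.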
With `COc1ccc(C(=O)NCc2ccc3c(c2)CCN3C(=O)c2ccncc2)cc1` the Potency was “inactive”.
`COc1ccc(OC)c(NC(=O)c2c(NCc3ccc(C)o3)sc3c2CCC(C)C3)c1` (configuration not stated) was tested, and the Potency was inconclusive: 100 µM [inhibitor, single point].
`O=C(Nc1ccc(CN2CCOCC2)cc1)c1ccc(-c2cc(Cl)ccc2Cl)o1` was tested, and the Potency was inconclusive: 89.1 µM [inhibitor, single point].
`COc1cc(/C=C/C(=O)OCC(=O)Nc2cc(C)c(C)cc2[N+](=O)[O-])ccc1O` was tested, and the activity change, negative = inhibition was inconclusive: -35.5% [inhibitor].
`CCn1c(SCC(=O)Nc2ccc3c(c2)oc2ccccc23)nnc1-c1ccc(N)cc1` was tested, and the Potency was inconclusive: 11.2 µM [inhibitor, full curve].
`CC(=O)c1cccc(S(=O)(=O)NCCc2csc3nc(-c4ccc(F)cc4)nn23)c1` was tested, and the Potency was inconclusive: 50.1 µM [inhibitor, partial curve].
With `Cc1nc(CC(=O)Nc2cccc(C)c2C)cs1` the Potency was “inactive”.
In the case of `COC(=O)c1ccc(OCC(O)Cn2cnc3cc(C)c(C)cc32)cc1` (configuration not stated), the Potency was inconclusive: 56.2 µM [inhibitor, single point].
For `COc1ccc(-c2noc(N3CCC(C(=O)N(C)c4ccccc4C)CC3)n2)cc1`, the Potency was inconclusive: 0.251 µM [inhibitor, full curve].
`O=C(N/N=C/c1ccc([N+](=O)[O-])o1)c1ccc(NS(=O)(=O)c2cccs2)cc1` was tested, and the Potency was inconclusive: 63.1 µM [inhibitor, single point].
For `COC(=O)c1ccc(-n2cc(-c3ccc(OC)cc3)[nH]c2=S)cc1`, the Potency was inconclusive: 25.1 µM [inhibitor, single point].
For `CCOc1ccccc1NC(=O)CN1C(=O)CC(c2ccco2)Sc2ccccc21` (configuration not stated), the Potency was inconclusive: 28.2 µM [inhibitor, partial curve, poor fit].
With `Cc1ccc(-c2nc(CSCC(=O)Nc3cc(C)on3)c(C)o2)cc1` the Potency was inconclusive: 17.8 µM [inhibitor, partial curve].
`CC(=O)N1Cc2cc([N+](=O)[O-])ccc2Oc2ccccc21` was tested, and the Potency was “inactive”.
With `Cc1ccc(OCc2nc(-c3cccnc3)no2)cc1C` the Potency was inconclusive: 70.8 µM [inhibitor, single point].
In the case of `COc1ccc(N=C2NC(=O)/C(=C/c3ccc(O)c(OC)c3)S2)cc1`, the Potency was active: 39.8 µM.
In the case of `CCCOC(=O)CSc1nc(N)c(C#N)c(CC)c1C#N`, the Potency was inconclusive: 89.1 µM [inhibitor, single point].
`Oc1ccc(/C=N/Nc2cc(N3CCCC3)nc(N3CCCC3)n2)cc1O` was tested, and the Potency was inconclusive: 0.891 µM [inhibitor, full curve, poor fit].
`O=C(Nc1cccc([N+](=O)[O-])c1)c1ccc2ccccc2c1O` was tested, and the Potency was active: 39.8 µM.
For `Cc1ccccc1NC(=O)Cn1cnc2c(oc3ccccc32)c1=O`, the Potency was inconclusive: 20 µM [inhibitor, partial curve, poor fit].
For `CCCCC(CC)CNC(=O)c1[nH]c(C)c(C(C)=O)c1C` (configuration not stated), the Potency was inconclusive: 89.1 µM [inhibitor, single point].
`CN(C)CCCNc1nc(-c2ccc(Cl)cc2)nc2ccccc12` was tested, and the Potency was inconclusive: 39.8 µM [inhibitor, full curve].
For `COc1ccc(COC(=O)c2[nH]c3c(c2C)C(=O)CC(c2ccc(OC)c(OC)c2)C3)cc1` (configuration not stated), the Potency was inconclusive: 89.1 µM [inhibitor, single point].
For `Cc1cccc(N2CCN(C(=O)CCC(=O)N3CC(C)Oc4ccccc43)CC2)c1C` (configuration not stated), the Potency was inconclusive: 0.0891 µM [inhibitor, full curve].
`O=c1nc(N/N=C/c2ccccn2)cn[nH]1` was tested, and the Potency was “inactive”.
In the case of `O=Cc1ccc2noc(-c3ccc(Cl)cc3)c2c1`, the Potency was inconclusive: 50.1 µM [inhibitor, partial curve].
For `CCOC(=O)c1sc(NC(=O)c2ccc(=O)[nH]c2)nc1C`, the Potency was “inactive”.
For `CCCc1nn(C)c(C(=O)Nc2cccc(CC)c2)c1Cl`, the Potency was inconclusive: 22.4 µM [inhibitor, partial curve].
`O=C(Nc1ccc(C(=O)O)cc1)Nc1cccc2ccccc12` was tested, and the Potency was inconclusive: 39.8 µM [inhibitor, single point].
With `Cc1ccc(SCC(=O)c2ccc(CC(=O)O)s2)cc1` the Potency was active: 11.2 µM.
In the case of `O=C(N/N=C\C=C\c1ccc(Br)cc1)c1ccc2c(c1)OCO2`, the Potency was active: 35.5 µM.
In the case of `Cn1c(/C(C#N)=C(\O)c2cccc(F)c2)nc2ccccc21`, the Potency was inconclusive: 4.47 µM [inhibitor, single point].
With `COc1ccc(OC)c(NC(=O)c2cc3c(s2)-c2ccccc2SC3)c1` the Potency was inconclusive: 89.1 µM [inhibitor, single point].
For `COc1ccccc1-c1c(C)nn2c(N3CCN(c4cccc(Cl)c4)CC3)cc(C)nc12`, the Potency was inconclusive: 89.1 µM [inhibitor, single point].
`CCc1ccc(NC(=O)COc2ccc(/C=C(/C#N)c3nc4ccccc4[nH]3)cc2OC)cc1` was tested, and the Potency was inconclusive: 10 µM [inhibitor, full curve].
With `O=C(CSc1nnc(CNC(=O)c2c(F)cccc2Cl)o1)Nc1ccccc1F` the Potency was “inactive”.
`COc1ccc(OC)c(NC(=S)N(CCc2c(C)[nH]c3ccc(C)cc23)Cc2cccs2)c1` was tested, and the Potency was inconclusive: 89.1 µM [inhibitor, single point].
For `COc1ccc(/C=N/NC(=S)N[C@H]2CC3CCC2C3)cc1` (some centres not stated), the Potency was inconclusive: 5.01 µM [inhibitor, full curve, poor fit].
`O=S(=O)(Nc1nc2ccccc2nc1Nc1cccc(S(=O)(=O)N2CCCCC2)c1)c1ccccc1` was tested, and the Potency was inconclusive: 39.8 µM [inhibitor, single point].
With `O=C(O)c1cccc(-c2ccc(/C=c3/sc4nc5ccccc5n4c3=O)o2)c1` the Potency was active: 3.98 µM.
In the case of `Cc1nc(-c2ccncc2)nc(NCCNc2ncccc2C(F)(F)F)c1Cl`, the Potency was inconclusive: 0.891 µM [inhibitor, partial curve].
For `O=C1SC(SCc2ccccc2)=N/C1=C\c1ccco1`, the Potency was active: 35.5 µM.
With `O=C(CCSc1ccc(Br)cc1)Nc1cccnc1` the Potency was inconclusive: 31.6 µM [inhibitor, single point].
For `COC(=O)Cn1cc(C#N)c2ccccc21`, the Potency was inconclusive: 89.1 µM [inhibitor, single point].
In the case of `COc1ccc(/C=C/C(=O)O)cc1S(=O)(=O)N1CCCCC1`, the Potency was inconclusive: 3.55 µM [inhibitor, full curve, poor fit].
`C#CCSc1nsc(SCC#C)c1C#N` was tested, and the Potency was active: 44.7 µM.
For `Cc1cc(O)c(NC(=S)NC(=O)c2ccc(-c3ccc(Cl)cc3)o2)cc1C`, the Potency was inconclusive: 10 µM [inhibitor, full curve, poor fit].
`Cc1ccc(Nc2cc(=O)n(C3CCCCC3)c(=O)[nH]2)cc1C` was tested, and the Potency was active: 56.2 µM.
With `COc1cccc(-c2nc3n(n2)C(c2ccc4c(c2)OCO4)C(C(N)=O)=C(C)N3)c1` (configuration not stated) the Potency was inconclusive: 79.4 µM [inhibitor, single point].
In the case of `O=C(CCN1C(=O)/C(=C/c2ccccc2Cl)SC1=S)Nc1ccccc1C(=O)O`, the Potency was inconclusive: 63.1 µM [inhibitor, single point].
`C=CCc1cccc2cc(C(=O)N3CCN(C(=O)c4ccccc4)CC3)c(=O)oc12` was tested, and the Potency was inconclusive: 79.4 µM [inhibitor, single point].
For `COc1ccc(Oc2coc3cc(OCC(=O)N4CCCCC4)ccc3c2=O)cc1`, the Potency was inconclusive: 63.1 µM [inhibitor, partial curve, poor fit].
For `Cc1cccc2nc(-c3ccccc3)nc(N3CCC(O)(c4ccc(Cl)cc4)CC3)c12`, the Potency was inconclusive: 0.355 µM [inhibitor, full curve, poor fit].
With `COC(=O)c1ccccc1NC(=O)Cn1cc(S(=O)(=O)Cc2ccccc2F)c2ccccc21` the Potency was inconclusive: 79.4 µM [inhibitor, partial curve].
With `C[C@@](Cc1ccc(O)c(O)c1)(NN)C(=O)O` the Potency was inconclusive: 89.1 µM [inhibitor, single point].
In the case of `COc1ccccc1Nc1nn2c(=O)c3ccc(C(=O)NCc4cccs4)cc3nc2s1`, the Potency was inconclusive: 14.1 µM [inhibitor, full curve].
`Cc1ccc2c(=O)c(C(=O)c3ccc(F)cc3)cn(CC(=O)NCc3ccccc3)c2n1` was tested, and the Potency was “inactive”.
`COc1ccc(N2CCN(C(=O)c3ccc(C)c(NC(=O)c4nsc5ccccc45)c3)CC2)cc1` was tested, and the Potency was inconclusive: 25.1 µM [inhibitor, full curve, poor fit].
`COc1ccc(N2CCN(S(=O)(=O)c3ccc4c(c3)CCCN4C(C)=O)CC2)cc1` was tested, and the Potency was inconclusive: 89.1 µM [inhibitor, single point].
For `COc1cc2c(cc1OC)C(COc1ccc(C(C)C)cc1)N(C(=O)c1ccc(S(=O)(=O)N3CCCC3)cc1)CC2` (configuration not stated), the Potency was “inactive”.
With `Cn1cnnc1Sc1ccc(CN2CCN(C3CCCC3)C(CCO)C2)o1` (configuration not stated) the Potency was inconclusive: 3.98 µM [inhibitor, single point].
In the case of `Cc1ccc2c(c1)N(C(=O)CCC(=O)NCc1cccs1)CCO2`, the Potency was “inactive”.
For `NC(=O)c1cccc2c1C(=O)N(C1CCCCC1)C2`, the Potency was inconclusive: 17.8 µM [inhibitor, full curve].
In the case of `CC1=NN(Cc2ccccc2)C(=O)C1`, the Potency was “inactive”.
`COC(=O)c1ccccc1NC(=O)c1ccc2nc(Cc3ccccc3)oc2c1` was tested, and the Potency was inconclusive: 89.1 µM [inhibitor, single point].
In the case of `COc1ccccc1/C=C(/CC(=O)NCc1ccc(F)cc1)c1nc2ccccc2s1`, the Potency was active: 44.7 µM.
`CC(=O)Nc1ccc(NC(=O)c2ccc(COc3ccc(Cl)cc3Cl)o2)cc1` was tested, and the Potency was inconclusive: 39.8 µM [inhibitor, partial curve].
